Test results published in the supplement of paper PMC4635364.
Counter-ions that a name gives are not always drawn. This is one part of the list. Single values are uncertain here, since repeats match poorly.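 Cells: ReNCell VM human fetal ventral-midbrain neural progenitors, differentiated mitogen-free. Blinded raters compared doublecortin-stained (early neurons) or tyrosine hydroxylase-stained (dopaminergic neurons) images with untreated wells, where 0 means no change. After repeats and both raters were averaged, compounds scoring 2 or above became hits for retesting.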

system: ReNCell VM; assay: neuronal differentiation score (DCX+ cell fraction vs untreated, manual image score) (score (-3 to 3)); higher = more neuronal differentiation; settings: library: LOPAC; 2 uM; 2 weeks

Structure (SMILES)	neuronal differentiation score
CC(C)N(CCC(C(N)=O)(c1ccccc1)c1ccccn1)C(C)C (centres undefined) [Disopyramide]	inactive: -1
CC1=NN=C(c2ccc(N)cc2)c2cc3c(cc2C1)OCO3	inactive: 0
CC(=O)NCCc1c[nH]c2ccccc12 [N-Acetyltryptamine]	inactive: -1
CN(C)C(=O)Oc1ccc[n+](C)c1 [Pyridostigmine bromide]	inactive: 0
N=C(N)NN [Aminoguanidine hydrochloride]	inactive: 0
C/C(O)=C(\C#N)C(=O)Nc1cc(Br)ccc1Br	inactive: 0
c1ccc2nc(N3CCNCC3)ccc2c1 [Quipazine dimaleate]	inactive: 0
O=C(Cc1ccc(Cl)c(Cl)c1)N1CCCCC1CN1CCCC1 (centres undefined)	inactive: 0
Oc1ccc2c3c1O[C@H]1c4[nH]c5c(c4C[C@@]4(O)[C@@H](C2)N(CC2CC2)CC[C@]314)C[C@@]1(O)[C@H]2Cc3ccc(O)c4c3[C@@]1(CCN2CC1CC1)[C@H]5O4 [nor-Binaltorphimine dihydrochloride]	inactive: 0
C[C@@H]1O[C@@H](O[C@H]2C[C@@H](O)[C@]3(CO)[C@H]4[C@H](O)C[C@]5(C)[C@@H](C6=CC(=O)OC6)CC[C@]5(O)[C@@H]4CC[C@]3(O)C2)[C@H](O)[C@H](O)[C@H]1O [Ouabain]	inactive: 0
C=C(C)[C@H]1Cc2c(ccc3c2O[C@@H]2COc4cc(OC)c(OC)cc4[C@@H]2C3=O)O1 [Rotenone]	inactive: 0
NCCc1c[nH]c2ccc(O)cc12 [Serotonin hydrochloride]	inactive: 0
COc1ccc(OC)c(C(O)C(C)N)c1 (centres undefined) [Methoxamine hydrochloride]	inactive: 0
COc1ccc2c(c1)[C@]13CCCC[C@@H]1[C@H](C2)N(C)CC3 [Dextromethorphan hydrobromide monohydrate]	inactive: 0
CCCCc1ccc(C(=O)O)nc1 [Fusaric acid]	inactive: 0
NCCc1c[nH]c2ccc(C(N)=O)cc12 [5-Carboxamidotryptamine maleate]	inactive: 0
O=c1[nH]oc2c1CCNC2 [THIP hydrochloride]	inactive: 0
CC(C)c1cccc(C(C)C)c1O [Propofol]	inactive: 0
O=c1c2ccccc2[se]n1-c1ccccc1 [Ebselen]	inactive: -2
O=C(CCCN1CCC2(CC1)C(=O)NCN2c1ccccc1)c1ccc(F)cc1 [Spiperone hydrochloride]	inactive: 0
NCCCNCCSP(=O)(O)O [Amifostine]	inactive: 0
CCC1(C2=NCCN2)Cc2ccccc2O1 (centres undefined) [Efaroxan hydrochloride]	inactive: 0
CC(=O)[C@H]1CC[C@H]2[C@@H]3CC[C@H]4C[C@](C)(O)CC[C@]4(C)[C@H]3CC[C@]12C [Ganaxolone]	inactive: 0
O=C(O)c1nn(Cc2ccc(Cl)cc2Cl)c2ccccc12 [Lonidamine]	inactive: 0
Nc1ccncc1 [4-Aminopyridine]	inactive: 0
O=C(N[C@H]1CN2CCC1CC2)c1ccc(Cl)cc1	inactive: 0
COc1ccc(-n2nc(C(F)(F)F)cc2-c2ccc(Cl)cc2)cc1	inactive: 0
S=C(NC1CCCCC1)N1CCC(c2cnc[nH]2)CC1 [Thioperamide maleate]	inactive: 0
CCCC(C)(COC(N)=O)COC(=O)NC(C)C (centres undefined) [Carisoprodol]	inactive: 0

same assay, conditions: library: Phytochemical; 2 uM; 2 weeks

Structure (SMILES)	neuronal differentiation score
NCCC(O)C(=O)NC1CC(N)C(OC2OC(CN)C(O)[C@H](O)[C@@H]2N)[C@H](OC2O[C@H](CO)[C@@H](O)[C@@H]2O)[C@@H]1O (some centres undefined) [Butirosin disulfate salt]	inactive: -1
CN(C)C(=O)Oc1ccc[n+](C)c1 [Pyridostigmine bromide]	inactive: 0
CC[C@@]1([C@@H]2O[C@@H]([C@H]3O[C@@](O)(CO)[C@H](C)C[C@@H]3C)C[C@@H]2C)CC[C@H]([C@]2(C)CC[C@]3(C[C@H](O)[C@@H](C)[C@@H]([C@@H](C)[C@@H](OC)[C@H](C)C(=O)O)O3)O2)O1 [Monensin sodium salt]	inactive: 0
C=C(C)[C@H]1Cc2c(ccc3c2O[C@@H]2COc4cc(OC)c(OC)cc4[C@@H]2C3=O)O1 [Rotenone]	inactive: 0
CCCCc1ccc(C(=O)O)nc1 [Fusaric acid]	inactive: 0
CNCC(O)c1ccc(O)cc1 (racemic) [(+,-)-Synephrine]	inactive: 0
CN1[C@@H]2CC[C@H]1C[C@@H](OC(=O)C(CO)c1ccccc1)C2 (some centres undefined) [Atropine sulfate monohydrate]	inactive: 1
C[C@]12CC[C@H](O)C[C@H]1CC[C@@H]1[C@@H]2C[C@@H](O)[C@]2(C)[C@@H](C3=CC(=O)OC3)CC[C@]12O [Digoxigenin]	inactive: 0
C[C@]12CC[C@H](O)C[C@H]1CC[C@@H]1[C@@H]2CC[C@]2(C)[C@@H](C3=CC(=O)OC3)CC[C@]12O [Digitoxigenin]	inactive: 0
CC[C@@]1(O)C(=O)OCc2c1cc1n(c2=O)Cc2cc3ccccc3nc2-1 [Camptothecine (S,+)]	inactive: 0
